Experimental data from patent US20260285846A1, “REV-ERB AGONISTS FOR TH17-MEDIATED INFLAMMATORY DISORDERS” (UNIVERSITY OF FLORID RESEARCH FOUNDATION, iNCORPORATED, priority 2021, published 2026).

Amino acid sequences for entries named in this document (tags omitted). Chains listed by the source or under a name are the forms on record and can include a tag or linker. Residues count along the entry.
UniProt P20393, 281-614 with tags or gaps DEL324-422 limits assumed: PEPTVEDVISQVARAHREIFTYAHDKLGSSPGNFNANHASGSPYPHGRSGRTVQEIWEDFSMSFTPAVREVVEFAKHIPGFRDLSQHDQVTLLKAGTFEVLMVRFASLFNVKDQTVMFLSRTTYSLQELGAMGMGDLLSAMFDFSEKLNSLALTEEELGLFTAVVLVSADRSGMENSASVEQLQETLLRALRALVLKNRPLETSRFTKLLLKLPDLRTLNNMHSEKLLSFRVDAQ
UniProt Q9Y618, 2335-2356 partner limits assumed: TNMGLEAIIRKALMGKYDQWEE

Molecular target: REV-ERBα LBD (Homo sapiens, UniProt P20393, DEL324-422)
Settings: read-out: REVERBα (Agonism of REV-ERBα, EC50); FRET assay; 6xHistag-REV-ERBα LBD with FITC-labeled SMRT corepressor peptide

- EC50: < 100 nM
Structure (SMILES): Cc1ncnc(C(F)F)c1-c1cc2c(cc1F)c([C@H](NS(=O)(=O)C1CC1)C(F)F)cn2CC(C)(C)C

The structures given here were assigned with low confidence; some may be wrong.
